Chains of the proteins cited; added tags and fusions are not shown.
UniProt P49915: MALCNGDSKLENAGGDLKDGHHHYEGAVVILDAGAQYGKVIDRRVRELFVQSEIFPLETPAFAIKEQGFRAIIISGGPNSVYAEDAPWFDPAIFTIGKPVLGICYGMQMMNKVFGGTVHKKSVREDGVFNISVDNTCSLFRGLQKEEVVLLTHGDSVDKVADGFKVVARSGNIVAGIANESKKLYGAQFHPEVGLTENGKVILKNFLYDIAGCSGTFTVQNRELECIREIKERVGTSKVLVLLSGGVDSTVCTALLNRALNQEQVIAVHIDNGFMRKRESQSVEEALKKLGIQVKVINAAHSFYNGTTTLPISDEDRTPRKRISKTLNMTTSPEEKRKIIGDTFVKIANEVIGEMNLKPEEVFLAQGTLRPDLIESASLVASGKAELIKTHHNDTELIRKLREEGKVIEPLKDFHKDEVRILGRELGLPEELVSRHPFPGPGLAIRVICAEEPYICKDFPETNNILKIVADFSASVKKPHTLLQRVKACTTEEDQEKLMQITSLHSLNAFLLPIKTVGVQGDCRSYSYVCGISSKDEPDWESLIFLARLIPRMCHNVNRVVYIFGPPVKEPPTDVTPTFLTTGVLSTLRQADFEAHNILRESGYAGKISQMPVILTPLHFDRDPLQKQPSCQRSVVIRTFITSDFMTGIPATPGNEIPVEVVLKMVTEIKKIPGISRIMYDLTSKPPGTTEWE

According to PMC8526568:

What was measured:
[1] = target: IMPDH2 lacking 101-134 aa (shRNA-resistant cDNA) (human) (UniProt P12268); experiment: co-IP; MDA-MB-231 cells depleted of endogenous IMPDH2 by shRNA and transduced with shRNA-resistant wild-type or deletion-mutant IMPDH2; immunoprecipitation and immunoblotting
[2] = target: IMPDH2 lacking 153-225 aa (shRNA-resistant cDNA) (human) (UniProt P12268); experiment: as above

binding [1]: binds
binding [2]: binds
Substance: guanosine monophosphate synthase (GMPS), endogenous (from UniProt P49915 1-693) (enzyme)

These are yes or no findings as the source states them, for the method shown. In cells and extracts the contact can be indirect. A result given as binding can be weak or reduced; the word gives no strength.
